# In paper doi:10.1101/2024.01.08.574726:
# No constants are given. Whether binding was seen depends on the method and setting. For some of these results: Binding can be weak; no strength is given. For some of these results: Where a sequence is shown, tags or fusion partners need not be part of it. For some of these results: In cells and extracts the contact can be indirect.
# T1: ARC6TP-NLuc-ARC6 (Arabidopsis thaliana) (UniProt Q9FIG9)
# T1 sequence: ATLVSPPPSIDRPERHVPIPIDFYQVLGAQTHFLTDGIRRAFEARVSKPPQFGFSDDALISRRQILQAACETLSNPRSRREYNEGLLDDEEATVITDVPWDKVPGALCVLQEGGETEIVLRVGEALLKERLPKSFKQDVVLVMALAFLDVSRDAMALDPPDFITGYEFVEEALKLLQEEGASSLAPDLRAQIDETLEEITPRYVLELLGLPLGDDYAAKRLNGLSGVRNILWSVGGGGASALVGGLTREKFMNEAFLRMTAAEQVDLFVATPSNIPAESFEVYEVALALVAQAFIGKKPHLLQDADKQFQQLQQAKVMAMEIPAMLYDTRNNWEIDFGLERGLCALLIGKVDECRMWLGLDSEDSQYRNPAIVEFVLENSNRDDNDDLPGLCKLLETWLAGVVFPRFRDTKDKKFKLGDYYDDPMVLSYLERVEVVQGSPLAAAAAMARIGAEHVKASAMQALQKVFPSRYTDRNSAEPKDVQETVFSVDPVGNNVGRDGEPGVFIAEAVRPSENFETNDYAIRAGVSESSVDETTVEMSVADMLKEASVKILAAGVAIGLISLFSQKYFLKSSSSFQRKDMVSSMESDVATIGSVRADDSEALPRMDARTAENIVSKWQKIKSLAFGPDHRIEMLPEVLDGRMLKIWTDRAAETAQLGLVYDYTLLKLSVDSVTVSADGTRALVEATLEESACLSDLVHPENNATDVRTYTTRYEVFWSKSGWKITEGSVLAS
# T2: ARC6-eGFP (Arabidopsis thaliana) (UniProt Q9FIG9)
# T2 sequence: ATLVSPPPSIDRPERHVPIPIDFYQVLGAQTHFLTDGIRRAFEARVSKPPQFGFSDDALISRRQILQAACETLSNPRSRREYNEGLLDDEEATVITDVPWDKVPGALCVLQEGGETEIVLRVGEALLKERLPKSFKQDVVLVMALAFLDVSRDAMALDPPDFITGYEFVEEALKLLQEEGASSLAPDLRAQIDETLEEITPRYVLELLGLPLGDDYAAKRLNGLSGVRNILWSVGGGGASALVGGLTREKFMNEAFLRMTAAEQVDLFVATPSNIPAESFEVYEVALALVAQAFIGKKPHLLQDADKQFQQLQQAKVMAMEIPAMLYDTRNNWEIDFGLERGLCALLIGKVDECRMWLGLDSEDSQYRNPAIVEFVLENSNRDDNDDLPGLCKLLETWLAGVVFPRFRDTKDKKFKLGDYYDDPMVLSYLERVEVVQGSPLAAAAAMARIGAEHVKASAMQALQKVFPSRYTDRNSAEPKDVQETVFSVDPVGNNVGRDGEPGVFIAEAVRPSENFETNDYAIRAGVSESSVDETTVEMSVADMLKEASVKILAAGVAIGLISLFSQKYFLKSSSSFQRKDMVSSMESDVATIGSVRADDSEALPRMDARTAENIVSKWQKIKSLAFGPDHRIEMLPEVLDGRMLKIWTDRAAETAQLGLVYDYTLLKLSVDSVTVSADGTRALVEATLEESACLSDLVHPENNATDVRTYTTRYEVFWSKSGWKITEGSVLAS
# T3: ARC3_(41-598), partner of AD-ARC6 derivatives in the two-hybrid (Arabidopsis thaliana) (UniProt Q6F6B5)
# T3 sequence: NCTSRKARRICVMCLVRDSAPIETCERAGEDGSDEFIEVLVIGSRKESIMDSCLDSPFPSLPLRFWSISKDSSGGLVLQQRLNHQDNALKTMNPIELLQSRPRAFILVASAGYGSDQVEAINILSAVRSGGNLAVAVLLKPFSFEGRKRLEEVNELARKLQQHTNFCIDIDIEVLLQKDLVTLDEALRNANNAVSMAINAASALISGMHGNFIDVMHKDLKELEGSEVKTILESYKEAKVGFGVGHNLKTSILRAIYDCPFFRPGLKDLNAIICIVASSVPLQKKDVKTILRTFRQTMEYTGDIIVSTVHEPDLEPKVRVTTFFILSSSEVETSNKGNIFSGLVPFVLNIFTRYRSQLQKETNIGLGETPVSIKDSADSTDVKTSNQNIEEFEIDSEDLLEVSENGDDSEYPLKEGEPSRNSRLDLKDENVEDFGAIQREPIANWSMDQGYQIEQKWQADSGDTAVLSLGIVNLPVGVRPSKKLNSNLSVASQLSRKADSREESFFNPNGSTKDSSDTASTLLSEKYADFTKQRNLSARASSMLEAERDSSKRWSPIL
# T4: ARC3_(41-741), partner of AD-ARC6 derivatives in the two-hybrid (Arabidopsis thaliana) (UniProt Q6F6B5)
# T4 sequence: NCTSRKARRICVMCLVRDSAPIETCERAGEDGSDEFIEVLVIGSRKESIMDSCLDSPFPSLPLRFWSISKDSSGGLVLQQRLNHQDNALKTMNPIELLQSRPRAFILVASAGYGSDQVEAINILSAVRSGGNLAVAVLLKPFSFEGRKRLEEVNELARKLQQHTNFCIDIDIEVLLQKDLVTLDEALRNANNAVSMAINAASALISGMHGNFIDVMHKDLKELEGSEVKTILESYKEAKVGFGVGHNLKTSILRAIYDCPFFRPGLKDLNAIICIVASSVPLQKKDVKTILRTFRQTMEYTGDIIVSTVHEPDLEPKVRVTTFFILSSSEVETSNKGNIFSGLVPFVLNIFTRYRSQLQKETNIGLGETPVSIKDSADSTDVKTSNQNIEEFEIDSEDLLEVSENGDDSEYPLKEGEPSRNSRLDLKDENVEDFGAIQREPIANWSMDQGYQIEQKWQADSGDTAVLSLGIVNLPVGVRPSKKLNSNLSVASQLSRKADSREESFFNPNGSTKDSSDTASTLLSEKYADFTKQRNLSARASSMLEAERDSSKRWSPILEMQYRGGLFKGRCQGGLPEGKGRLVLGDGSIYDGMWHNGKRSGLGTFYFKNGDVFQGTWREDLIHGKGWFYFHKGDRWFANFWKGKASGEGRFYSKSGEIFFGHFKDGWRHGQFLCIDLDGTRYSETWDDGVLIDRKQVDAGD
# T5: ARC3_(598-741) (Arabidopsis thaliana) (UniProt Q6F6B5)
# T5 sequence: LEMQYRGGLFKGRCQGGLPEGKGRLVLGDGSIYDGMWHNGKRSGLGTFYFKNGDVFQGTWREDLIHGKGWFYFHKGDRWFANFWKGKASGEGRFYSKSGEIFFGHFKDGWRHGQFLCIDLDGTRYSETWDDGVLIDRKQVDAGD
# Tests used:
# [1] = target: T1, ARC6TP-NLuc-ARC6 (Arabidopsis thaliana); experiment: split reporter
# [2] = target: T2, ARC6-eGFP (Arabidopsis thaliana); experiment: co-IP
# [3] = target: T3, ARC3_(41-598), partner of AD-ARC6 derivatives in the two-hybrid (Arabidopsis thaliana); experiment: two-hybrid
# [4] = target: T4, ARC3_(41-741), partner of AD-ARC6 derivatives in the two-hybrid (Arabidopsis thaliana); experiment: two-hybrid
# [5] = target: T5, ARC3_(598-741) (Arabidopsis thaliana); experiment: two-hybrid
# [6] = target: BD-FtsZ2 (Arabidopsis thaliana); experiment: two-hybrid
# AtDjA24 = experiment: two-hybrid
# [7] = target: ARC3_(Δ630-675) (Arabidopsis thaliana); experiment: two-hybrid
molecule,measurement,setting,value
FtsZ2-CLuc (Arabidopsis thaliana),binding,[1],binds
FtsZ2-6×HA (Arabidopsis thaliana),binding,[2],binds
ARC6_(ΔPPQ) (from UniProt Q9FIG9) (domain or fragment),binding,[3],binds
same,binding,[4],binds
same,binding,[5],binds
"ARC6_(ΔJLD) (domain or fragment, UniProt Q9FIG9) ATLVSPPPSIDRPERHVPIPILDDEEATVITDVPWDKVPGALCVLQEGGETEIVLRVGEALLKERLPKSFKQDVVLVMALAFLDVSRDAMALDPPDFITGYEFVEEALKLLQEEGASSLAPDLRAQIDETLEEITPRYVLELLGLPLGDDYAAKRLNGLSGVRNILWSVGGGGASALVGGLTREKFMNEAFLRMTAAEQVDLFVATPSNIPAESFEVYEVALALVAQAFIGKKPHLLQDADKQFQQLQQAKVMAMEIPAMLYDTRNNWEIDFGLERGLCALLIGKVDECRMWLGLDSEDSQYRNPAIVEFVLENSNRDDNDDLPGLCKLLETWLAGVVFPRFRDTKDKKFKLGDYYDDPMVLSYLERVEVVQGSPLAAAAAMARIGAEHVKASAMQALQKVFPSRYTDRNSAEPKDVQETVFSVDPVGNNVGRDGEPGVFIAEAVRPSENFETNDYAIRAGVSESSVDETTVEMSVADMLKE",binding,[6],binds
"ARC3_(41-598), partner of the BD-FtsZ proteins in the two-hybrid (domain or fragment, UniProt Q6F6B5 41-598) NCTSRKARRICVMCLVRDSAPIETCERAGEDGSDEFIEVLVIGSRKESIMDSCLDSPFPSLPLRFWSISKDSSGGLVLQQRLNHQDNALKTMNPIELLQSRPRAFILVASAGYGSDQVEAINILSAVRSGGNLAVAVLLKPFSFEGRKRLEEVNELARKLQQHTNFCIDIDIEVLLQKDLVTLDEALRNANNAVSMAINAASALISGMHGNFIDVMHKDLKELEGSEVKTILESYKEAKVGFGVGHNLKTSILRAIYDCPFFRPGLKDLNAIICIVASSVPLQKKDVKTILRTFRQTMEYTGDIIVSTVHEPDLEPKVRVTTFFILSSSEVETSNKGNIFSGLVPFVLNIFTRYRSQLQKETNIGLGETPVSIKDSADSTDVKTSNQNIEEFEIDSEDLLEVSENGDDSEYPLKEGEPSRNSRLDLKDENVEDFGAIQREPIANWSMDQGYQIEQKWQADSGDTAVLSLGIVNLPVGVRPSKKLNSNLSVASQLSRKADSREESFFNPNGSTKDSSDTASTLLSEKYADFTKQRNLSARASSMLEAERDSSKRWSPIL",binding,[6],binds
"cpHsp70-1 (protein, UniProt Q9STW6 1-718) MASSAAQIHVLGGIGFASSSSSKRNLNGKGGTFMPRSAFFGTRTGPFSTPTSAFLRMGTRNGGGASRYAVGPVRVVNEKVVGIDLGTTNSAVAAMEGGKPTIVTNAEGQRTTPSVVAYTKSGDRLVGQIAKRQAVVNPENTFFSVKRFIGRKMNEVDEESKQVSYRVVRDENNNVKLECPAINKQFAAEEISAQVLRKLVDDASRFLNDKVTKAVITVPAYFNDSQRTATKDAGRIAGLEVLRIINEPTAASLAYGFDRKANETILVFDLGGGTFDVSVLEVGDGVFEVLSTSGDTHLGGDDFDKRVVDWLAAEFKKDEGIDLLKDKQALQRLTEAAEKAKIELSSLTQTNMSLPFITATADGPKHIETTLTRAKFEELCSDLLDRVRTPVENSLRDAKLSFKDIDEVILVGGSTRIPAVQELVRKVTGKEPNVTVNPDEVVALGAAVQAGVLAGDVSDIVLLDVTPLSIGLETLGGVMTKIIPRNTTLPTSKSEVFSTAADGQTSVEINVLQGEREFVRDNKSLGSFRLDGIPPAPRGVPQIEVKFDIDANGILSVSAVDKGTGKKQDITITGASTLPKDEVDQMVQEAERFAKDDKEKRDAIDTKNQADSVVYQTEKQLKELGEKIPGEVKEKVEAKLQELKDKIGSGSTQEIKDAMAALNQEVMQIGQSLYNQPGAGGPGAGPSPGGEGASSGDSSSSKGGDGDDVIDADFTDSQ",binding,AtDjA24,binds
"ARC6_(68-614) (domain or fragment, UniProt Q9FIG9 68-614) ATLVSPPPSIDRPERHVPIPIDFYQVLGAQTHFLTDGIRRAFEARVSKPPQFGFSDDALISRRQILQAACETLSNPRSRREYNEGLLDDEEATVITDVPWDKVPGALCVLQEGGETEIVLRVGEALLKERLPKSFKQDVVLVMALAFLDVSRDAMALDPPDFITGYEFVEEALKLLQEEGASSLAPDLRAQIDETLEEITPRYVLELLGLPLGDDYAAKRLNGLSGVRNILWSVGGGGASALVGGLTREKFMNEAFLRMTAAEQVDLFVATPSNIPAESFEVYEVALALVAQAFIGKKPHLLQDADKQFQQLQQAKVMAMEIPAMLYDTRNNWEIDFGLERGLCALLIGKVDECRMWLGLDSEDSQYRNPAIVEFVLENSNRDDNDDLPGLCKLLETWLAGVVFPRFRDTKDKKFKLGDYYDDPMVLSYLERVEVVQGSPLAAAAAMARIGAEHVKASAMQALQKVFPSRYTDRNSAEPKDVQETVFSVDPVGNNVGRDGEPGVFIAEAVRPSENFETNDYAIRAGVSESSVDETTVEMSVADMLKE",binding,[6],binds
same,binding,[7],no binding
